According to PubChem BioAssay AID2685 (National Center for Advancing Translational Sciences (NCATS), 2010):
This is one part of the list. The main result of the screen is listed elsewhere. These columns were measured beside it and carry no call. The list favours compounds with an active or inconclusive main result. Potencies come from curve fits of mixed quality, noted in brackets.

Experiment: qHTS Assay for Lipid Storage Modulators in Drosophila S3 Cells;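 on cell number change: cells counted by Cell Tracker Red CMTPX staining in the red channel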
Conditions: BODIPY lipid droplet fluorescence, 18-24 h; for cell number change: measured here: cell count max response, cells fed with added oleic acid
Outline: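 Drosophila S3 cells got compounds at several concentrations plus oleic acid (400 uM solution). Laser-scanning cytometry with 488 nm excitation read lipid droplets at 500-530 nm and cells at 575-640 nm. Percent activity was relative to 20 uM Triacsin C.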

[1] = measured here: cell number channel AC50, cells fed with added oleic acid
[2] = measured here: lipid fluorescence (Fed channel) AC50, cells fed with added oleic acid

Row | SMILES | cell number change | AC50 [1] | AC50 [2]
1 | O=C1Nc2ccc(NS(=O)(=O)c3cccs3)c3cccc1c23 | -24.7% |  | 
2 | CC(C)Cc1nnc(NC(=O)CSc2ccccn2)s1 | 51.6% | 29.1 µM [rising, single point] | 
3 | Cc1ccc(S(=O)(=O)N(C)C)cc1NC(=O)COC(=O)CCC(=O)c1cccs1 | 18.5% |  | 0.58 µM [rising, full curve]
4 | O=C(O)CNS(=O)(=O)c1ccc2[nH]c(=O)c(=O)[nH]c2c1 | -23.4% | 0.0731 µM [falling, full curve, poor fit] | 0.164 µM [falling, full curve, poor fit]
5 | Cc1cc(NC(=O)CSc2nc3c(c(=O)n2Cc2ccccc2)SC(C)C3)no1 (configuration not stated) | 1.59% |  | 0.291 µM [rising, partial curve]
6 | O=C(c1cc(-c2ccco2)nc2ccccc12)N(Cc1nnc(-c2ccc(Cl)cc2)o1)C1CC1 | -21.6% |  | 0.00411 µM [falling, full curve, poor fit]
7 | O=C(NC(=S)NNC(=O)c1ccco1)c1ccc(F)cc1 |  |  | 29.1 µM [falling, single point]
8 | O=C(NCCN1C(=O)S/C(=C\c2cccnc2)C1=O)c1cccc(OC(F)F)c1 | 6.16% |  | 
9 | O=c1c(-c2ccccc2)c(O)cc(-c2ccncc2)n1-c1ccc(Cl)cc1 | 1.32% | 6.51 µM [falling, single point] | 6.51 µM [falling, single point]
10 | C/C(=N\NC(=O)c1cc(-c2ccc(O)cc2)nc2ccccc12)c1cccnc1 |  | 2.91 µM [falling, single point] | 
11 | Cc1nnc(SCC(=O)NCCN2C(=O)CSC2=O)s1 | -99.2% | 29.1 µM [falling, single point] | 18.4 µM [falling, single point]
12 | Cc1ccc(NC(=S)NNC(=O)c2c(Cl)c(C)nn2C)cc1 | 48.8% | 3.26 µM [rising, full curve] | 
13 | Cc1ccc2nc(SCC(=O)c3cc(C)n(C)c3C)[nH]c2c1 | -45.5% | 16.4 µM [falling, partial curve] | 13 µM [falling, partial curve]
14 | COC(=O)C(NC(=O)c1ccccc1)(Nc1nc(C)cs1)C(F)(F)F (configuration not stated) | 0.904% |  | 6.51 µM [falling, single point]
15 | O=S(=O)(c1cccc(Br)c1)N1CCN(c2ccnc3cc(Cl)ccc23)CC1 |  |  | 1.3 µM [rising, full curve, poor fit]
16 | CCN(CC)S(=O)(=O)c1cccc(-c2nnc(SCC(=O)NCCC3=CCCCC3)n2N)c1 | -12.9% |  | 16.4 µM [falling, partial curve, poor fit]
17 | Cc1ccc2[nH]c(=O)c(CN(c3cccc(C)c3C)S(=O)(=O)c3ccccc3)cc2c1 |  |  | 0.00517 µM [falling, full curve, poor fit]
18 | Cc1ccc(S(=O)(=O)N2CCOCC2)cc1NC(=O)COC(=O)CNC(=O)c1ccc(Cl)cc1Cl | 2.55% |  | 29.1 µM [falling, single point]
19 | CCc1nnc(NS(=O)(=O)c2ccc(Nc3ccc([N+](=O)[O-])c4nonc34)cc2)s1 | 10.2% | 0.0651 µM [rising, full curve] | 

Row | SMILES | cell number change | AC50 [1] | AC50 [2]
20 | CN1CCN(CC(=O)Nc2sc3c(c2C(=O)Nc2ccccc2)CCCC3)CC1 | 49.7% | 29.1 µM [rising, single point] | 29.1 µM [rising, single point]
21 | CC(C)Cc1nc2ccccc2n1CCc1ccccc1 | 12.3% |  | 4.11 µM [rising, partial curve, poor fit]
22 | CCn1nnnc1-c1ccc(OC)c(S(=O)(=O)Nc2ccc(C)c(C)c2)c1 | 2.75% |  | 
23 | O=C(c1ccc(S(=O)(=O)N2CCCC2)cc1)N1CCN(c2ccccc2)CC1 | 5.13% |  | 
24 | Cc1ccc(S(=O)(=O)CCC(=O)OCC(=O)N(C)C2CCS(=O)(=O)C2)cc1 (configuration not stated) | -26.5% |  | 
25 | O=C(CCC(=O)Nc1ccc(Cl)cc1Cl)N/N=C/c1ccc([N+](=O)[O-])o1 | -8.59% | 0.731 µM [rising, full curve] | 1.03 µM [rising, full curve]
26 | CCOC(=O)C1=C(C)NC(=O)NC1C (configuration not stated) |  |  | 29.1 µM [falling, single point]
27 | CCCCn1c(N)c(N(CCOC)C(=O)c2c(CC)noc2C)c(=O)[nH]c1=O | -39.9% | 4.11 µM [falling, full curve] | 4.11 µM [falling, full curve]
28 | O=C(Cc1ccccc1)NCC(=O)OCC(=O)c1ccccc1Cl | 5.97% |  | 0.0058 µM [rising, full curve, poor fit]
29 | Cc1cnc(C(=O)N2CCCC(C(=O)c3ccc(Cl)cc3C)C2)cn1 (configuration not stated) | 6.05% |  | 0.00461 µM [rising, full curve, poor fit]
30 | COc1ccc(-c2nc(C#N)c(NCCCN(C)C)o2)cc1OC | -36.5% | 7.31 µM [falling, full curve, poor fit] | 
31 | Cc1ccc(CCNC(=O)C2=CCN(S(=O)(=O)c3ccccc3)CC2)cc1 | 11.9% |  | 6.51 µM [rising, single point]
32 | Cn1c2ccccc2c2n[nH]c(=O)nc21 | 0.213% |  | 
33 | CCn1c(-c2ccccc2Cl)nn(CC(=O)Nc2cc(Cl)ccc2Cl)c1=S | 25.6% |  | 4.61 µM [rising, partial curve]
34 | CC1CCCC(NC(=O)c2ccc3c(c2)N(Cc2ccccc2)C(=O)CS3=O)C1C (configuration not stated) |  |  | 2.91 µM [rising, single point]
35 | CC(OC(=O)C1CCN(c2ccc(C(F)(F)F)cn2)CC1)C(=O)NC1CCCCC1C (configuration not stated) | 3.44% |  | 0.00517 µM [rising, full curve, poor fit]
36 | COC(=O)CSc1nc(N)c(C#N)c(CC(C)C)c1C#N | 6.42% |  | 6.51 µM [rising, single point]
37 | Oc1ccccc1O | 15.6% |  | 0.651 µM [rising, full curve, poor fit]
38 | O=C(Nc1cccc(C(=O)O)c1)Nc1ccccc1Cl | -45.1% | 29.1 µM [falling, single point] | 3.26 µM [rising, single point]

Shown in markdown: part of the list above

| Row | SMILES | cell number change | AC50 [1] | AC50 [2] |
| --- | --- | --- | --- | --- |
| 32 | Cn1c2ccccc2c2n[nH]c(=O)nc21 | 0.213% |  |  |
| 33 | CCn1c(-c2ccccc2Cl)nn(CC(=O)Nc2cc(Cl)ccc2Cl)c1=S | 25.6% |  | 4.61 µM [rising, partial curve] |
